Experimental data: patent US20120220548A1, “Compositions and methods for treatment of virus-associated cancer cells” (priority 2011, published 2012)
For at least one compound, name, drawing or mass did not settle the structure.

Tested on: BCBL-1 cells
Experiment: tumor growth (mouse weight) in BCBL-1-injected NOD/SCID mice, rapamycin with or without oHA
Assay type: in vivo
Details: rapamycin 0.2 mg/kg i.p., oHA 0.5 mg/kg i.p., one month

SMILES: CO[C@H]1C[C@@H]2CC[C@@H](C)[C@@](O)(O2)C(=O)C(=O)N2CCCC[C@H]2C(=O)O[C@H]([C@H](C)C[C@@H]2CC[C@@H](O)[C@H](OC)C2)CC(=O)[C@H](C)/C=C(\C)[C@@H](O)[C@@H](OC)C(=O)[C@H](C)C[C@H](C)/C=C/C=C/C=C/1C [rapamycin]
- effect on progress of lymphoma (weight gain): did not significantly affect the increase in weight
